We go through 1 substance from publication PMC4598156.

Sequences of proteins named here, by UniProt entry; tags and fusion partners are left off. Residues count along the entry.
UniProt Q63495, residues 23-402: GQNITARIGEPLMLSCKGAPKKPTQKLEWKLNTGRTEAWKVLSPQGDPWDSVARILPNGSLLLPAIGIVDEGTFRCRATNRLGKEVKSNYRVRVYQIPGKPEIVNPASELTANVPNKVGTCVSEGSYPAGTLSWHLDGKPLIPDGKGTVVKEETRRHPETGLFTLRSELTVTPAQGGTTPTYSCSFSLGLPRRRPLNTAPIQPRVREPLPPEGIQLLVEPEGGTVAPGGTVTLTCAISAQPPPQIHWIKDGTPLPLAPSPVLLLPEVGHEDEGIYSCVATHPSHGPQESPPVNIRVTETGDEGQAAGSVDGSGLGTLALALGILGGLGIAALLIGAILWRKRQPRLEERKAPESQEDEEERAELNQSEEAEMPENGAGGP

No constants are given. Whether binding was seen depends on the method and setting. Binding seen in cells or lysates may run through a third protein. Some results given as binding are weak or reduced against the parent protein; the word gives no strength.

This assay has as its target T1, mitochondrial transcription factor A (TFAM) (rat (endogenous in Sprague Dawley rat heart)) (UniProt Q91ZW1).
T1 sequence: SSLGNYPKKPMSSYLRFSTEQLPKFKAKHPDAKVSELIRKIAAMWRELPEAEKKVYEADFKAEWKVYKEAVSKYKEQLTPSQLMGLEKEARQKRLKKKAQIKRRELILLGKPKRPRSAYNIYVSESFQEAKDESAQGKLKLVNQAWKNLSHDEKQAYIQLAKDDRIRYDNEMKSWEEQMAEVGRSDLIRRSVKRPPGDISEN
As to the kind of experiment: co-IP; 0.5 mg total heart tissue lysate precipitated with anti-TFAM at 4°C overnight, protein A/G plus agarose, washed in cold PBS, Western blot for RAGE; hearts of sham rats, septic rats and septic rats given Mito-Vit-E. In general terms: Immunoblotting shows a protein as a band on a membrane.

Take “receptor of advance glycation end products (RAGE) (from UniProt Q63495 23-402)”: the binding result is “binds”.
